Experimental data: patent publication US20260355142A1, “AMORPHOUS OTE[…] COMPOSITIONS AND USES THEREOF AND DOSAGE REGIMENS FOR OTENAPROXESUL” (ANTIBE THERAPEUTICS INC., priority 2022, published 2026)

Test: H2S release / formulation stability in simulated intestinal fluid
Conditions: SIF, 37° C., 1 mg/ml
Method: Assay design: 1 mg of exemplary ASD no. 1 and crystalline otenaproxesul were weighed in separate glass vials. SIF was added to prepare a 1 mg/ml solution which was incubated at 37° C. with 5% CO2. 120 μl was removed at 0.5, 1, 2, 3, 4 and 8 hrs and quenched in DPD (N,N-dimethyl-p-phenylenediamine sulfate) and FeCl3 solutions. A calibration curve was prepared to quantify amount of H2S released. A blank and 10 mM stock was also analyzed. The methylene blue was analyzed using HPLC.

Structure (SMILES): COc1ccc2cc([C@H](C)C(=O)Oc3ccc(C(N)=S)cc3)ccc2c1 [crystalline otenaproxesul]
- H2S release, initial: did not release significant H2S initially
- H2S release (8 h): 8.5 µM
